Values quoted from earlier work in patent publication US6642275B2, “Formulation for respiratory tract administration” (Euro- Celtique, S.A., priority 1995, dated 2003).
At least one structure is not confirmed: it was looked up by name or label, or the drawing left a doubt.

What was measured:
[1] = animal models
[2] = tested on: reuptake of norepinephrine; conditions: in vitro

## COc1cccc([C@@]2(O)CCCC[C@H]2CN(C)C)c1 (racemic) [tramadol, (±) trans-2-[(dimethylamino)methyl]-1-(3-methoxyphenyl) cyclohexanol]
[1]
  antagonism of tramadol-induced antinociception by the opioid antagonist naloxone: only partially antagonizes
[2]
  effect on reuptake of norepinephrine: antagonizes reuptake
Opioid receptors
  binding to opioid receptors (affinity, in words): low affinity
